Data taken from the supplement of paper PMC11348887.
Structures can show the parent of a compound that is named as a salt. The list shows a part of the results. Small differences around the control level are noise.

Legend:
Settings in all cases: 5 µM; treatment: days 7-14 after plating, readout day 21
[1] = test system: hPSC-derived cortical neurons (WA09); experiment: nucleus area z-score vs screen plate; higher = larger nuclei (more mature)
[2] = test system: hPSC-derived cortical neurons (WA09); experiment: total neurite length per nucleus (MAP2) z-score; higher = more neurite growth
[3] = test system: hPSC-derived cortical neurons (WA09); experiment: nucleus roundness z-score vs screen plate; higher = rounder nuclei (more mature)
[4] = test system: hPSC-derived cortical neurons (WA09); experiment: KCl-induced FOS+/EGR-1+ double-positive nuclei fraction z-score (KCl minus unstimulated); higher = stronger activity-induced IEG response

Compound	nucleus area z-score [1]	total neurite length per nucleus (z-score) [2]	nucleus roundness z-score [3]	KCl-induced FOS+/EGR-1+ double-positive nuclei fraction z-score [4]
O=C(/C=C/c1ccc2ccccc2n1)c1ccncc1	0.788	2.11	-0.00854	0.851
COCCCOc1cc(C[C@@H](C[C@H](N)[C@@H](O)C[C@H](C(=O)NCC(C)(C)C(N)=O)C(C)C)C(C)C)ccc1OC [Aliskiren Hemifumarate]	1.56	0.529	-0.204	-0.454
O=C1Nc2ccc(I)cc2/C1=C/c1cc(Br)c(O)c(Br)c1	1.45	-0.28	-0.675	1.71
CC(c1cc2ccccc2s1)N(O)C(N)=O (stereo not drawn) [Zileuton]	0.109	0.534	0.129	0.714
CCOc1nc2cccc(C(=O)O)c2n1Cc1ccc(-c2ccccc2-c2noc(=O)[nH]2)cc1 [Azilsartan]	-13.8	-1.95	-8.97	-0.29
O=C(Nc1ccc(S(=O)(=O)Nc2ccccc2Cl)c(Cl)c1)c1ccccn1	1.85	-0.609	-1.11	1.73
Cc1cc(F)c(Nc2ncnc3cc(OCc4ccccc4)ccc23)cc1O	0.829	-0.0794	0.563	0.0431
CCCN(CCc1cccs1)[C@H]1CCc2c(O)cccc2C1 [Rotigotine]	-0.183	-0.428	-0.0272	-0.285
CN(C)CCc1c[nH]c2ccc(Cn3cncn3)cc12 [Rizatriptan Benzoate]	-0.328	0.451	0.258	-0.221
C=CC(=O)Nc1cccc(Oc2nc(Nc3ccc(N4CCN(C)CC4)cc3OC)ncc2Cl)c1	-0.24	0.145	0.933	0.428
Clc1cccc(CN=C2Nc3ccccc3NC23CCNCC3)c1 [Liproxstatin-1]	0.0877	0.00609	0.507	0.106
CCCN(CCC)C(=O)C1=Cc2ccc(-c3ccc(C(=O)N4CCCC4)cc3)cc2N=C(N)C1 [Motolimod (VTX-2337)]	-0.309	0.146	-0.15	-0.253
CC(C)N(CCCNC(=O)Nc1ccc(C(C)(C)C)cc1)C[C@H]1O[C@@H](n2ccc3c(N)ncnc32)[C@H](O)[C@@H]1O	0.0568	0.924	0.695	0.613
Oc1c(Cl)cc(Cl)c2cccnc12 [Chloroxine]	1.58	0.0807	0.659	0.116
O=C(N[C@H](CO)[C@H](O)c1ccc([N+](=O)[O-])cc1)C(Cl)Cl [Chloramphenicol]	-0.607	-0.644	-0.253	0.768
O=C(O)CCCC[C@@H]1SC[C@@H]2NC(=O)N[C@@H]21 [Biotin (Vitamin B7)]	-0.252	-0.119	0.0781	1.94
O=C(NCCS(=O)(=O)c1ccc(C(F)(F)F)cn1)c1ccc(Cl)cc1	-0.2	0.228	0.361	1.22
CNS(=O)(=O)Cc1ccc2[nH]cc(CCN(C)C)c2c1 [Sumatriptan Succinate]	0.75	0.184	0.0581	0.178
COc1cccc(-c2cc(NCc3ccc4c(c3)OCO4)nc(N)n2)c1 [Wnt agonist 1]	-10.4	-3.89	-2.44	-0.819

Compound	nucleus area z-score [1]	total neurite length per nucleus (z-score) [2]	nucleus roundness z-score [3]	KCl-induced FOS+/EGR-1+ double-positive nuclei fraction z-score [4]
CCC[C@H](N[C@@H](C)C(=O)N1[C@H](C(=O)O)C[C@@H]2CCCC[C@@H]21)C(=O)OCC [Perindopril Erbumine]	1.04	-0.026	0.726	0.0342
CC(=O)O[C@]1(C(C)=O)CC[C@H]2[C@@H]3C=C(C)C4=CC(=O)CC[C@]4(C)[C@H]3CC[C@@]21C [Megestrol Acetate]	-0.194	0.763	0.579	0.0955
CC(N)C12CC3CC(CC(C3)C1)C2 (stereo not drawn) [Rimantadine]	0.0352	0.515	-1.25	0.722
O=C(O)Cc1ccccc1Nc1c(Cl)cccc1Cl [Diclofenac Diethylamine]	0.0653	0.765	1.1	1.69
O=S(=O)(O)c1cc(O)ccc1O [Ethamsylate]	-0.179	-1.49	-0.406	-0.17
Nc1ncnc2c1nc(Br)n2[C@@H]1O[C@@H]2COP(=O)(O)O[C@H]2[C@H]1O [8-Bromo-cAMP]	-0.181	-0.223	-0.512	-0.705
COc1ccc(COc2ccc(Cc3cnc(N)nc3N)cc2OC)cc1	1.55	0.143	-0.501	0.0295
Cc1ccc(=O)n(-c2ccccc2)c1 [Pirfenidone]	0.139	-0.444	0.212	0.149
NCCCC[C@@H]1NC(=O)[C@@H](Cc2ccccc2)NC(=O)[C@H](CC(=O)O)NC(=O)CNC(=O)[C@H](CCCN=C(N)N)NC1=O [Cyclo (-RGDfK)]	2.08	-0.584	-0.0253	0.557
CC[C@H](C)[C@@H]1NC(=O)[C@H](Cc2ccc(O)cc2)NC(=O)[C@@H](N)CSSC[C@@H](C(=O)N2CCC[C@H]2C(=O)N[C@@H](CC(C)C)C(=O)NCC(N)=O)NC(=O)[C@H](CC(N)=O)NC(=O)[C@H](CCC(N)=O)NC1=O [Oxytocin (Syntocinon)]	0.189	0.0425	-0.262	-0.445
CC(C(=O)O)c1ccc(CC2CCCC2=O)cc1 (stereo not drawn) [Loxoprofen]	-0.489	0.863	0.134	1.93
CC(C)C[C@H](NC(=O)[C@H](CCc1ccccc1)NC(=O)CN1CCOCC1)C(=O)N[C@@H](Cc1ccccc1)C(=O)N[C@@H](CC(C)C)C(=O)[C@@]1(C)CO1 [Carfilzomib (PR-171)]	-18.9	-5.76	-6.83	-1.06
C[N+](C)(C)CCOC(N)=O [Carbachol]	1.49	1.33	0.388	0.773
Oc1ccc(Cc2nc3c(Cc4ccccc4)nc(-c4ccc(O)cc4)cn3c2O)cc1 [Coelenterazine]	2.29	0.45	-0.545	-0.173
CC(C)(C)OC(=O)Nc1ccc(-c2cc(C(=O)NCCCCCCC(=O)NO)no2)cc1	-3.01	-2.03	-3.12	-1.21
C[C@@H](O)[C@H]1C(=O)N2C(C(=O)O)=C(S[C@@H]3CN[C@H](C(=O)N(C)C)C3)[C@H](C)[C@H]12 [Meropenem]	0.446	0.51	-0.163	-0.117
NC[C@H]1CC[C@H](C(=O)O)CC1 [Tranexamic Acid]	0.372	0.565	0.457	-0.175
CN[C@@H]1[C@H](O[C@H]2[C@H](O[C@H]3[C@H](O)[C@@H](O)[C@H](NC(=N)N)[C@@H](O)[C@@H]3NC(=N)N)O[C@@H](C)[C@]2(O)CO)O[C@@H](CO)[C@H](O)[C@H]1O [Dihydrostreptomycin sulfate]	1.49	1.32	0.759	0.225
Clc1ccc(C(Cn2ccnc2)OCc2ccsc2Cl)c(Cl)c1 (stereo not drawn) [Tioconazole]	-0.656	0.43	0.588	0.136

Compound	nucleus area z-score [1]	total neurite length per nucleus (z-score) [2]	nucleus roundness z-score [3]	KCl-induced FOS+/EGR-1+ double-positive nuclei fraction z-score [4]
OC(c1cc(C(F)(F)F)nc2c(C(F)(F)F)cccc12)C1CCCCN1 (stereo not drawn) [Mefloquine HCl]	2.46	-3.17	-5.89	-7.14
OCc1ccccc1O[C@@H]1O[C@H](CO)[C@@H](O)[C@H](O)[C@H]1O [Salicin]	0.0923	-0.635	-0.52	0.0877
Cc1nc(Nc2n[nH]c3c2CN(C(=O)N[C@H](CN(C)C)c2ccccc2)C3(C)C)c2sccc2n1	-12.2	-3.29	-4.68	-0.647
CCn1cc(NC(=S)Nc2cc(Cl)ccc2OC)c(C(N)=O)n1	-0.325	0.307	0.427	0.208
CNC(=O)CN1CCC(Oc2cc3c(Nc4cccc(Cl)c4F)ncnc3cc2OC)CC1 [AZD8931 (Sapitinib)]	1.65	-1.06	-0.846	-0.764
COc1ccc(CCCOC(Cn2ccnc2)c2ccc(OC)cc2)cc1 (stereo not drawn)	-1.61	-0.475	-0.655	-0.962
NC12CC3CC(CC(C3)C1)C2 [Amantadine HCl]	0.729	-0.626	-0.621	-0.262
CC(C)(Oc1ccc(C2CC2(Cl)Cl)cc1)C(=O)O (stereo not drawn) [Ciprofibrate]	0.83	0.831	-0.131	0.607
C[C@H]1[C@H](C)CC[C@]2(C(=O)O)CC[C@]3(C)C(=CC[C@@H]4[C@@]5(C)CC[C@H](O)C(C)(C)[C@@H]5CC[C@]43C)[C@H]12 [Ursolic Acid]	-0.424	-0.758	-0.891	-0.542
CC1=CC(=O)c2ccccc2C1=O [Menadione]	0.51	-0.37	-0.639	0.186
C=CC(=O)Nc1cccc(Oc2nc(Nc3ccc(N4CCN(C)CC4)cc3)nc3ccsc23)c1	-3.09	-1.43	-1.86	-0.844
CC1CCN(CC[C@H]2CCCN2S(=O)(=O)c2cccc(O)c2)CC1	-0.0984	-0.556	-0.614	0.435
CN(C)[C@@H]1C(O)=C(C(N)=O)C(=O)[C@@]2(O)C(O)=C3C(=O)c4c(O)cccc4[C@@](C)(O)[C@H]3[C@H](O)[C@@H]12 [Oxytetracycline Dihydrate]	-0.589	2.12	1.52	0.839
Nc1c(CC(=O)O)cccc1C(=O)c1ccc(Br)cc1 [Bromfenac Sodium]	0.144	1.07	0.624	-0.18
O=C(O)CC1CC(c2ccccc2)=NO1 (stereo not drawn)	0.566	0.737	1.58	0.522
c1ccc2c(Oc3nc(Nc4ccc(N5CCOCC5)cc4)c4ncn(C5CCCCC5)c4n3)cccc2c1 [Purmorphamine]	0.0441	-0.375	-1.08	0.822
COc1cc(C2Oc3cc([C@H]4Oc5cc(O)cc(O)c5C(=O)[C@@H]4O)ccc3OC2CO)ccc1O (stereo partly drawn) [Silibinin]	-0.144	0.693	-0.0211	0.365
CCc1c(C(=O)NCCc2ccc(N3CCCCC3)cc2)[nH]c2ccc(Cl)cc12	0.126	0.387	0.399	1.13
N#CC(c1ccc(Cl)cc1)c1c(Cl)cc(-n2ncc(=O)[nH]c2=O)cc1Cl (stereo not drawn) [Diclazuril]	-0.428	0.193	1.44	0.181

Taken from above.
Nc1c(CC(=O)O)cccc1C(=O)c1ccc(Br)cc1 [Bromfenac Sodium] | nucleus roundness z-score [3]: 0.624
O=C(O)CC1CC(c2ccccc2)=NO1 (stereo not drawn) | nucleus area z-score [1]: 0.566
